Measurements taken from patent US9408899B2, “Vaccines against Toxoplasma gondii” (priority 2010, dated 2016).
Read-outs that look alike come from different tables or passages of the source. Some of these results come from one statement about several compounds together. No end group written: not given here.

How the values were obtained:
[1] = tested on: PBMC from HLA-A03 supertype persons; experiment: IFN-γ ELISpot assay with human PBMC (HLA-A03 supertype); type: cell-based; conditions: individual peptides
HLA-A02 alleles = experiment: MHC-peptide binding assay, tested HLA-A02 alleles; set-up: species or system human
[2] = 4 HLA-A02 alleles bound, read-out: affinities for 4 HLA-A02 alleles

| Sequence | Kd (HLA-A02 alleles; [2]) [nM] | other results |
| --- | --- | --- |
| STFWPCLLR |  | IFN-γ SFC from seropositive donors PBMC cells [1]: greater than 50 IFN-γ SFC |
| FMIVSISLV [SAG2X351-359] |  | Kd (HLA-A02 alleles; all five tested HLA-A02 alleles, read-out: Kd for all five tested HLA-A02 alleles): ≤ 50 nM |
| FLLGLLVHV [SAG3375-383] | < 50 |  |
| FLTDYIPGA [SAG3136-144] | < 50 |  |
